# From the supplement of paper PMC10849652
# Chains of the proteins cited; added tags and fusions are not shown. Lines headed by an entry give the natural chain unless they say otherwise; changes in a name come on top.
# UniProt O95602, whole entry, looked up: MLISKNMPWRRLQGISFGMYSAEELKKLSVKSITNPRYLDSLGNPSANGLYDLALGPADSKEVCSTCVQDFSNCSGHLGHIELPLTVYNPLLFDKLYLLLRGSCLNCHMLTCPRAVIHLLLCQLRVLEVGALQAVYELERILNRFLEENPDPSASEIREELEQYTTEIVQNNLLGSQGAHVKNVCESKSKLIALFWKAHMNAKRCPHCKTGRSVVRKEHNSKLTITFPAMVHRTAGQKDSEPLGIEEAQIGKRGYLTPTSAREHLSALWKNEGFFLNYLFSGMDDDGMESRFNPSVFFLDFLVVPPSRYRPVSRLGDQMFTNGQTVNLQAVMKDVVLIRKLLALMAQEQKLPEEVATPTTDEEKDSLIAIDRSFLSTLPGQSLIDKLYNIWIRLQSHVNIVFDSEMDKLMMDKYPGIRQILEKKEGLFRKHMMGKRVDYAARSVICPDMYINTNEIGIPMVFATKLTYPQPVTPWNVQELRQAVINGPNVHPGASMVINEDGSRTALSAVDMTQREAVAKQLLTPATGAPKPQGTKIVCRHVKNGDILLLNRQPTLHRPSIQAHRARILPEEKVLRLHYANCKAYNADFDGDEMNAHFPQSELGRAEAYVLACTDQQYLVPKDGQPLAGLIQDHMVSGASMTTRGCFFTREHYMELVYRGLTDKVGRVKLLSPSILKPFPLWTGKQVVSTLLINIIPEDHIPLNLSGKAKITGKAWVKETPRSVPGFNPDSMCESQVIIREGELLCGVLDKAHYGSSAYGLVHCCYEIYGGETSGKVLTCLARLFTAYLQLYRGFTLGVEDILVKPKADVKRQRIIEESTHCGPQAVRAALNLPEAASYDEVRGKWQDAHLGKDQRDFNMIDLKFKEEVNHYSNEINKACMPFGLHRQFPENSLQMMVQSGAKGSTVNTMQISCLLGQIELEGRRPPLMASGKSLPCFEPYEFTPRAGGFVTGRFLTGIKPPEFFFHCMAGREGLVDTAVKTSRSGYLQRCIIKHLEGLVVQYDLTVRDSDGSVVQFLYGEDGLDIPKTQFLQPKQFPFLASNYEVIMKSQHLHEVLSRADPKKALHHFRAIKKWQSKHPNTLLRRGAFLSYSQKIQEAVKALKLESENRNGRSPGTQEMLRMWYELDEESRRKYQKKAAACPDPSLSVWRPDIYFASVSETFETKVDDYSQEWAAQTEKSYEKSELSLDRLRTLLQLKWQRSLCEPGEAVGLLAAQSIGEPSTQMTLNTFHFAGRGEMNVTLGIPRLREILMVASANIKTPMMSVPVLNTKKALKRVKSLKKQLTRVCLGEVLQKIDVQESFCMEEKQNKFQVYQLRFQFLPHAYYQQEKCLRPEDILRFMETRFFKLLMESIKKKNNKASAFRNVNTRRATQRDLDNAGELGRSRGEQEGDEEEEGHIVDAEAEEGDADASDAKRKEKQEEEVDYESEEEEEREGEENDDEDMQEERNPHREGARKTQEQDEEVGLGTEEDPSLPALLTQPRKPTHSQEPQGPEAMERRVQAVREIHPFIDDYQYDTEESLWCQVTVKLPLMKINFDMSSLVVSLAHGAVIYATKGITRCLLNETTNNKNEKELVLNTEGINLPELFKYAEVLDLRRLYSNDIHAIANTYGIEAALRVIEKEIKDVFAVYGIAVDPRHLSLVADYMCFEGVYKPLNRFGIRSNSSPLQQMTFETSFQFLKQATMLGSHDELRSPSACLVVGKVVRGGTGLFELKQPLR
# UniProt Q10713: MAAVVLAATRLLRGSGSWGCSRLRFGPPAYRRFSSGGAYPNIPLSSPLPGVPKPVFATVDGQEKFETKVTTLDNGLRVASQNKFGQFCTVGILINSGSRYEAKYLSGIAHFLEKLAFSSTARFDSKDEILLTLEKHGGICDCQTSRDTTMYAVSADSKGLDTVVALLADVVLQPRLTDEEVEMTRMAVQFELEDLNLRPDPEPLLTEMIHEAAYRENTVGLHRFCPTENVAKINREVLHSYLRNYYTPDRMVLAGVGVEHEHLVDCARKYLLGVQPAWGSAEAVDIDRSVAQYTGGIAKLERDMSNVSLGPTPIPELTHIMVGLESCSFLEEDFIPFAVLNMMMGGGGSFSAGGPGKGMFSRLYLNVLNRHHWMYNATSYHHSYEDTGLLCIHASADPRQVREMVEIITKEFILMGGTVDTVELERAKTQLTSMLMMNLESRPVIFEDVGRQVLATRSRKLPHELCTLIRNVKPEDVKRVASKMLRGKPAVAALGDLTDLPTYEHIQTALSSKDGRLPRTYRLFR
# UniProt Q7Z3K3: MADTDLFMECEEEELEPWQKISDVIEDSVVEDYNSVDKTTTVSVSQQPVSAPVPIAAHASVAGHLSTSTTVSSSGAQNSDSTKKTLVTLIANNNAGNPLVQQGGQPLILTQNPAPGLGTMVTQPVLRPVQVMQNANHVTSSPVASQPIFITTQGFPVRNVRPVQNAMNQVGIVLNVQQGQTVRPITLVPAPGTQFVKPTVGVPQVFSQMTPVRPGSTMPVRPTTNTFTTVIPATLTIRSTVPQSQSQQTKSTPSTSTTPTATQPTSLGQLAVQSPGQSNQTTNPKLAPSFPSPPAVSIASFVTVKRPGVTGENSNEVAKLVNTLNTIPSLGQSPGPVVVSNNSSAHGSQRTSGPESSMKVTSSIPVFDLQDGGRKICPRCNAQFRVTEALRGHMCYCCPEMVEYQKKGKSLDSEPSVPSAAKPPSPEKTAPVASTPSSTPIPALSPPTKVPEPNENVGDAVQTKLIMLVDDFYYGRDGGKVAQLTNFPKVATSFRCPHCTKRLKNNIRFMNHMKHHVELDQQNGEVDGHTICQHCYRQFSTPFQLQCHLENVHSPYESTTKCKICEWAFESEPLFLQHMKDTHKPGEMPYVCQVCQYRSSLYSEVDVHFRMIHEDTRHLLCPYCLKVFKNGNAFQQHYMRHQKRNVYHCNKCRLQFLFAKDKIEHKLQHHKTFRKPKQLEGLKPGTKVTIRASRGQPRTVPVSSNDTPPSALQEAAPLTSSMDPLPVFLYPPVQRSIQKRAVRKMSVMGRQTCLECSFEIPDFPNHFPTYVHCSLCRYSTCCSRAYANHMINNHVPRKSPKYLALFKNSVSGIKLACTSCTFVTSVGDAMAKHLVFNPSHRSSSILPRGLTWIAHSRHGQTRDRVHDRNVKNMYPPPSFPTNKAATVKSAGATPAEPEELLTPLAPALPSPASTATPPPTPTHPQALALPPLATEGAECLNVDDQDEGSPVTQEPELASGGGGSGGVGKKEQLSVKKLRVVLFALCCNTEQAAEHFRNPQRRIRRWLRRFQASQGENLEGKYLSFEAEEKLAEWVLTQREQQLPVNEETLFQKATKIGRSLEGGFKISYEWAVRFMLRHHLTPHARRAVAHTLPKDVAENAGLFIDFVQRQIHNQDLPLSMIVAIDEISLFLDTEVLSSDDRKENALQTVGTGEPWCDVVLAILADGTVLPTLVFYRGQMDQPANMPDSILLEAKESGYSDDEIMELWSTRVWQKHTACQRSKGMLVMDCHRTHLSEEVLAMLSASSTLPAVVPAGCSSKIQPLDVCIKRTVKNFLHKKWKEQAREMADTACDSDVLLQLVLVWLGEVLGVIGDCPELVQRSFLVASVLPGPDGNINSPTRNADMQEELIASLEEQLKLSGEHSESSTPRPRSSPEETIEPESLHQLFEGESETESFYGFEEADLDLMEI
# UniProt O15305: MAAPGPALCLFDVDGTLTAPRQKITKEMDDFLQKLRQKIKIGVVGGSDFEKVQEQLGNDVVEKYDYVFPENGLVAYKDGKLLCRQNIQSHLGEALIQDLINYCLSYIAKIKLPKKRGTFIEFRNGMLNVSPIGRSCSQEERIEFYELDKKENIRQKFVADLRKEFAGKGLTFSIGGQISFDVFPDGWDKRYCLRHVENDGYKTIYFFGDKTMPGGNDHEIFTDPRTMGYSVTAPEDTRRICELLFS
# UniProt Q9NW61: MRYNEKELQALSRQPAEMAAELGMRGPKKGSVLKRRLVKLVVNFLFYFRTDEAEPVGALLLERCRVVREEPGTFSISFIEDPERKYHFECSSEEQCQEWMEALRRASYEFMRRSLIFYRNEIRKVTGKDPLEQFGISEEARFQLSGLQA
# UniProt Q9NUX5: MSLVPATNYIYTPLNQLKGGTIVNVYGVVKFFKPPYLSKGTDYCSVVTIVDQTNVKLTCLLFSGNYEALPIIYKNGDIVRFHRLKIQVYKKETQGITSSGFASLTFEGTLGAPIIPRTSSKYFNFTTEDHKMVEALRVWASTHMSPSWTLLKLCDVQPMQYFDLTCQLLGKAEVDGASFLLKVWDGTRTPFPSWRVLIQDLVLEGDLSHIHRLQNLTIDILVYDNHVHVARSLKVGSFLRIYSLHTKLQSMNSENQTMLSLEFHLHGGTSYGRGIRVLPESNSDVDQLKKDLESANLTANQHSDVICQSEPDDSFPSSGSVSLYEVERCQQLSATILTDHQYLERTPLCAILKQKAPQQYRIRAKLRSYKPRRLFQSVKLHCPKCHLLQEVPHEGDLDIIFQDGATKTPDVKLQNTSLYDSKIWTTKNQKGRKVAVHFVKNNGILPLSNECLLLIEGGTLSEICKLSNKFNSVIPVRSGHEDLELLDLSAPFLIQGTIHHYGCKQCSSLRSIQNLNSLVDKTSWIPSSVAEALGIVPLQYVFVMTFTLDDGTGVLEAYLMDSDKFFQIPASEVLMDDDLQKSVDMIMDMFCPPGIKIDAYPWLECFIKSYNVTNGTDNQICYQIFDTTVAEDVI
# UniProt P56282: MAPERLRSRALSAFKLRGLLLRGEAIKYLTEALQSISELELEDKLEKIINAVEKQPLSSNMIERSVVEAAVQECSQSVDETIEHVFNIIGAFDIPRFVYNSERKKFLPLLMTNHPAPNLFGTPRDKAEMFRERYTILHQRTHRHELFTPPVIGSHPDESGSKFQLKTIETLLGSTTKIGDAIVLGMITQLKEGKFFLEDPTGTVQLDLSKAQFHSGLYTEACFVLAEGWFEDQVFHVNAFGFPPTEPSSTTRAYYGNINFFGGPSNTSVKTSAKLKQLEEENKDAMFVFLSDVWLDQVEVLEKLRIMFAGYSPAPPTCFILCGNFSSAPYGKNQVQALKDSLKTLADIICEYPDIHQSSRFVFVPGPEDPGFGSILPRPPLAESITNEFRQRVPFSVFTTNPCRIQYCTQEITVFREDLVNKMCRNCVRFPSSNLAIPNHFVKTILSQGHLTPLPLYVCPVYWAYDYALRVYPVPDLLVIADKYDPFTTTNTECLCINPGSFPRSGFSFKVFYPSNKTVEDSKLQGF
# UniProt Q68D20: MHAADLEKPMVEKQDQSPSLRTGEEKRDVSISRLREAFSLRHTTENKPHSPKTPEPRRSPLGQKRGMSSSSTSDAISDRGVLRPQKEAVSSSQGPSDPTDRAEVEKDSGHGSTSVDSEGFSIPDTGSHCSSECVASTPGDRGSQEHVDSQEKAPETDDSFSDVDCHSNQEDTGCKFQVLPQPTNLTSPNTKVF
# UniProt Q15126: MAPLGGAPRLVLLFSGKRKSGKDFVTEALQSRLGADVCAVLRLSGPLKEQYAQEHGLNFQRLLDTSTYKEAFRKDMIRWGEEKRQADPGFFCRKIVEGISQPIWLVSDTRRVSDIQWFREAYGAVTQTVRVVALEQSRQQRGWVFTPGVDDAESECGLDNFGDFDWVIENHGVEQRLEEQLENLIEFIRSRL
# UniProt Q9HCU8: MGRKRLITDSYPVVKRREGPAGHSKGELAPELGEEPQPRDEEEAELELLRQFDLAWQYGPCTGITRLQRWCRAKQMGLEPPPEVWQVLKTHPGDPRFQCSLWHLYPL
# UniProt Q6T4P5: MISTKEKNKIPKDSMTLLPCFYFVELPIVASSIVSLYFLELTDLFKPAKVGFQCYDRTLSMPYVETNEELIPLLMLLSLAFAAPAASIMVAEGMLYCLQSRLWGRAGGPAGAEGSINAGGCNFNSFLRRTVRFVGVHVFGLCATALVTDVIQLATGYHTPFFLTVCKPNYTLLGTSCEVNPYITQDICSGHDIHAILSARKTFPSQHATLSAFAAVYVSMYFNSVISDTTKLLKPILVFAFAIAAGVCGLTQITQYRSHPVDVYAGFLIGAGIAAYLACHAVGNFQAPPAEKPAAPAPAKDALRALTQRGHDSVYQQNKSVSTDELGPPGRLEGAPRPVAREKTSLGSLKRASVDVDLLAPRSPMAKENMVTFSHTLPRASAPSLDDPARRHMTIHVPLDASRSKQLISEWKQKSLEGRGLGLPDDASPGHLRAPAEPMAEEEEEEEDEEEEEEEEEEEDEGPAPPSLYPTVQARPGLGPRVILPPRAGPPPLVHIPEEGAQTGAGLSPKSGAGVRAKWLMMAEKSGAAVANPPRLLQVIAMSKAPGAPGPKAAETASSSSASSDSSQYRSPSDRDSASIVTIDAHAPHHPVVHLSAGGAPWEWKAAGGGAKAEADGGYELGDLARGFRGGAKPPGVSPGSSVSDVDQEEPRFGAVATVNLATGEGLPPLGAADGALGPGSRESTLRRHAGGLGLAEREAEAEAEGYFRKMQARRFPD
# UniProt P62937, whole entry, looked up: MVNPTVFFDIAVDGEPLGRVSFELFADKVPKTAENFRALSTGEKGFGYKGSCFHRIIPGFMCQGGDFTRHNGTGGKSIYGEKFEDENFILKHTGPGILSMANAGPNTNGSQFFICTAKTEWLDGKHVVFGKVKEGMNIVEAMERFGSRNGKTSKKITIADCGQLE
# The other results are listed elsewhere or left out.
# Tests used:
# Test in all cases: log2 fold change, soluble protein after heating vs DMSO (PISA); higher = thermal stabilisation; K562 cells, 10 uM, 30 min; active = over 0.2 and 3.5 SD of the protein, either way, in both replicates (recomputed)
# [1] = compound: CS(=O)(=O)c1ccc(-c2cnc(N)c(C(=O)Nc3ccccc3)n2)cc1
# In short: (§1)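 Values are thermal stability changes relative to control samples and are taken from duplicates. They are stated as log2 fold changes. Before quantification by TMTpro 16plex LC-MS/MS with equalised channel sums, K562 cells at 2×10^6 cells/mL were treated with 10 μM compound for 30 min, heated in aliquots for 3 min across 48°C-58°C, pooled, extracted in PBS with 0.5% NP-40 at 4°C, and centrifuged at 21,000xg for 90 min to give the soluble supernatant.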
# crizotinib = compound: C[C@@H](Oc1cc(-c2cnn(C3CCNCC3)c2)cnc1N)c1c(Cl)ccc(F)c1Cl [crizotinib]
# In short: as §1
# [2] = compound: C[C@@H]1COCCN1C2=NC(=NC(=C2)C3(CC3)S(=O)(=O)C)C4=C5C=CNC5=CC=C4
# In short: as §1
# [3] = compound: C[C@H](C1=CC=C(C=C1)C(=O)NC2=C3C=CNC3=NC=C2)N
# In short: as §1
# gandotinib = compound: Cc1cc(Nc2cc(CN3CCOCC3)c3nc(C)c(Cc4ccc(Cl)cc4F)n3n2)n[nH]1 [gandotinib]
# In short: as §1
# [4] = compound: Cc1cc(SCc2sc(-c3ccc(C(F)(F)F)cc3)nc2C)ccc1OCC(=O)O
# In short: as §1
# doramapimod = compound: Cc1ccc(-n2nc(C(C)(C)C)cc2NC(=O)Nc2ccc(OCCN3CCOCC3)c3ccccc23)cc1 [doramapimod]
# In short: as §1
# ispinesib = compound: Cc1ccc(C(=O)N(CCCN)[C@@H](c2nc3cc(Cl)ccc3c(=O)n2Cc2ccccc2)C(C)C)cc1 [ispinesib]
# In short: as §1
# duvelisib = compound: C[C@H](Nc1ncnc2nc[nH]c12)c1cc2cccc(Cl)c2c(=O)n1-c1ccccc1 [duvelisib]
# In short: as §1
# tozasertib = compound: Cc1cc(Nc2cc(N3CCN(C)CC3)nc(Sc3ccc(NC(=O)C4CC4)cc3)n2)n[nH]1 [tozasertib]
# In short: as §1
Target,log2 fold change [1],log2 fold change (crizotinib),log2 fold change [2],log2 fold change [3],log2 fold change (gandotinib),log2 fold change [4],log2 fold change (doramapimod),log2 fold change (ispinesib),log2 fold change (duvelisib),log2 fold change (tozasertib)
POLR1A (UniProt O95602),inactive: 0.076,inactive: -0.017,inactive: -0.116,inactive: 0.125,inactive: -0.03,inactive: 0.08,inactive: 0.141,inactive: -0.151,,
POLRMT (UniProt O00411),inactive: -0.082,inactive: -0.18,inactive: -0.097,,,inactive: -0.069,inactive: 0.179,,inactive: 0.017,
POMK (UniProt Q9H5K3),inactive: -0.013,inactive: -0.044,inactive: -0.034,inactive: 0.086,inactive: 0.027,inactive: 0.092,inactive: 0.108,inactive: -0.203,,
POLA2 (UniProt Q14181),inactive: 0.116,inactive: -0.026,inactive: 0.143,inactive: -0.036,active: -0.287,inactive: 0.047,inactive: -0.013,inactive: -0.028,,
PMPCA (UniProt Q10713),inactive: 0.006,inactive: -0.014,inactive: 0.033,inactive: -0.07,inactive: -0.076,inactive: -0.011,inactive: 0.028,inactive: -0.043,,
PLS3 (UniProt H7C4N2),inactive: 0.193,inactive: 0.038,inactive: -0.196,,,,inactive: 0.35,,,
POGZ (UniProt Q7Z3K3),inactive: 0.044,inactive: -0.019,inactive: 0.242,inactive: 0.01,inactive: 0.143,inactive: 0.142,inactive: 0.053,inactive: -0.221,,
PMM2 (UniProt O15305),inactive: 0.006,inactive: 0.08,inactive: 0.013,inactive: 0.012,inactive: -0.045,inactive: -0.031,inactive: -0.015,inactive: 0.009,,
POLR2I (UniProt P36954),inactive: 0.003,inactive: 0.334,inactive: 0.052,inactive: 0.001,inactive: 0.336,inactive: -0.032,inactive: -0.047,inactive: 0.127,,
"POLG, A0A3B3IS91",,,,,,inactive: -0.001,,,inactive: 0.204,inactive: -0.113
POMT1 (UniProt Q9Y6A1),,inactive: 0,inactive: 0.032,,,inactive: -0.012,inactive: 0.265,,inactive: 0.14,inactive: -0.039
PLVAP (UniProt Q9BX97),inactive: -0.058,,inactive: 0.335,inactive: 0.226,inactive: -0.198,inactive: -0.125,,inactive: 0.02,inactive: 0.162,inactive: 0.115
PPHLN1 isoform 3 (UniProt Q8NEY8),,,,inactive: -0.138,,,,,,inactive: -0.149
POLR1E isoform 1 (UniProt Q9GZS1),,,,,,inactive: 0.072,,inactive: -0.531,inactive: -0.018,
PPIG (UniProt Q13427),,inactive: -0.149,,,,inactive: 0.273,inactive: -0.103,inactive: -0.033,inactive: -0.024,
PODXL (UniProt O00592),,,,,inactive: -0.09,,,,,
PLOD2 isoform 2 (UniProt O00469),,inactive: 0.079,,,,inactive: 0.035,inactive: -0.028,,inactive: -0.015,
PLSCR3 (UniProt Q9NRY6),,,,inactive: -0.192,inactive: -0.105,,,,,
POC1A (UniProt Q8NBT0),,inactive: -0.308,,inactive: 0.234,,inactive: 0.045,inactive: -0.044,,inactive: -0.272,inactive: -0.041
PM20D2 (UniProt Q8IYS1),inactive: -0.022,,,,,inactive: -0.016,,inactive: -0.183,inactive: 0.151,inactive: -0.035
PLEKHJ1 (UniProt Q9NW61),,,inactive: -0.01,inactive: 0.207,,inactive: 0.37,,inactive: -0.086,inactive: -0.131,

# Part of the list above in a different format.
Target | log2 fold change [1] | log2 fold change (crizotinib) | log2 fold change [2] | log2 fold change [3] | log2 fold change (gandotinib) | log2 fold change [4] | log2 fold change (doramapimod) | log2 fold change (ispinesib) | log2 fold change (duvelisib) | log2 fold change (tozasertib)
POLG, A0A3B3IS91 |  |  |  |  |  | inactive: -0.001 |  |  | inactive: 0.204 | inactive: -0.113
PLVAP (UniProt Q9BX97) | inactive: -0.058 |  | inactive: 0.335 | inactive: 0.226 | inactive: -0.198 | inactive: -0.125 |  | inactive: 0.02 | inactive: 0.162 | inactive: 0.115

# Further records follow:

Target,log2 fold change [1],log2 fold change (crizotinib),log2 fold change [2],log2 fold change [3],log2 fold change (gandotinib),log2 fold change [4],log2 fold change (doramapimod),log2 fold change (ispinesib),log2 fold change (duvelisib),log2 fold change (tozasertib)
POT1 (UniProt Q9NUX5),inactive: -0.056,,inactive: -0.105,,,,,inactive: -0.024,,inactive: -0.146
POLR2J (UniProt P52435),,,inactive: 0.195,inactive: 0.098,inactive: 0.194,inactive: 0.033,,,inactive: 0.051,
POLQ (UniProt O75417),,,,,inactive: 0.198,,,inactive: -0.026,,
POF1B isoform 1 (UniProt Q8WVV4),,,,,,inactive: 0.243,,,inactive: -0.098,inactive: 0.152
POLE (UniProt Q07864),,,,inactive: 0.345,inactive: -0.023,,,inactive: -0.466,,
POLE2 (UniProt P56282),,inactive: 0.138,,,inactive: -0.047,,inactive: 0.148,inactive: -0.014,,
PORCN (UniProt Q9H237),,,,inactive: -0.055,,,,inactive: -0.248,,
PMS2CL (UniProt Q68D20),,,inactive: -0.091,,,,,inactive: 0.105,,
PPHLN1 (UniProt Q8NEY8),,inactive: 0.094,,,inactive: -0.098,inactive: -0.089,inactive: 0.076,inactive: -0.155,inactive: 0.153,
PMVK (UniProt Q15126),inactive: 0.088,,inactive: 0.02,inactive: 0.083,active: -0.705,inactive: 0.333,,,,
PNMT (UniProt P11086),inactive: -0.05,,,inactive: 0.12,,inactive: 0.147,,,inactive: 0.079,inactive: -0.068
POLD4 (UniProt Q9HCU8),,inactive: 0.021,,inactive: 0.057,inactive: -0.113,inactive: -0.066,inactive: 0.028,inactive: 0.031,inactive: 0.031,inactive: -0.076
PLXND1 (UniProt Q9Y4D7),,inactive: -0.203,,,,inactive: 0.229,inactive: 0.072,inactive: -0.877,inactive: 0.189,
PLEKHO2 (UniProt Q8TD55),,inactive: -0.068,,inactive: 0.116,inactive: 0.004,,inactive: 0.056,inactive: -0.242,,inactive: -0.11
PNPLA6 (UniProt Q8IY17),,inactive: -0.061,inactive: -0.087,inactive: 0.153,,inactive: -0.125,inactive: 0.216,inactive: 0.347,inactive: 0.058,inactive: 0.142
POLB (UniProt P06746),inactive: -0.078,,inactive: -0.003,inactive: 0.036,inactive: 0.081,inactive: -0.045,,inactive: -0.1,,
PLPPR3 isoform 3 (UniProt Q6T4P5),,,inactive: -0.007,inactive: -0.098,inactive: 0.184,,,inactive: -0.436,,
PPIA isoform 2 (UniProt P62937),,,inactive: 0.107,inactive: 0.115,inactive: -0.17,inactive: -0.084,,inactive: -0.245,inactive: 0.132,inactive: 0.001
POLR2E (UniProt P19388),,inactive: 0.112,inactive: -0.027,inactive: 0.14,inactive: 0.157,inactive: 0.089,inactive: -0.078,inactive: -0.058,,
POMT2 (UniProt Q9UKY4),,inactive: -0.014,,inactive: 0.105,,inactive: 0.005,inactive: 0.146,inactive: -0.116,inactive: 0.154,inactive: -0.121
PPFIA3 (UniProt O75145),,,inactive: -0.094,inactive: 0.15,,,,,,
